Experimental data taken from the supplement of paper PMC6411743.
± gives the standard deviation of the averaged measurements. Only a part is listed here, and it is no random draw.

By UniProt entry, the sequences of proteins in these tests, tags left out. Where a name states a change or a piece, a line headed by the entry shows the natural chain unless it says otherwise.
UniProt P16403, whole entry: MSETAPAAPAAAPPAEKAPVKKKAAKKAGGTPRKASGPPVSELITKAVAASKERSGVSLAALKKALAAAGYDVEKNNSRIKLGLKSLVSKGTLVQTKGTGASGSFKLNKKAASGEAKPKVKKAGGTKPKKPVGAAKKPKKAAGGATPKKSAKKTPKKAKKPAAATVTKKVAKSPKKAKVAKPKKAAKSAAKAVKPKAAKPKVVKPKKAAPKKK
UniProt P04053: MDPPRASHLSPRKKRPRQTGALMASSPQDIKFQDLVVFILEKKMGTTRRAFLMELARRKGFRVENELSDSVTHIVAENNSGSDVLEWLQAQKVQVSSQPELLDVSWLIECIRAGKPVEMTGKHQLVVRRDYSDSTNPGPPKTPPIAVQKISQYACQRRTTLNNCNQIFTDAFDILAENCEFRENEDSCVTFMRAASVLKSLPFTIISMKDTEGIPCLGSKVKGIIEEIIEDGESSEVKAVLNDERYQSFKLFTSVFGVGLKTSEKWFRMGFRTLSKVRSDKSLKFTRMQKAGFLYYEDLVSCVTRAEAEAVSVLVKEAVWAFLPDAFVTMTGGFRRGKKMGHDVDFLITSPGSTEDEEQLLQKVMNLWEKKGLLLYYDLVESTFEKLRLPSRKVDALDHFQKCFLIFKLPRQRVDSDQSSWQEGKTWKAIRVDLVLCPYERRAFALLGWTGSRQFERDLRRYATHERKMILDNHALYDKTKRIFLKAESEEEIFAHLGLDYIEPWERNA
UniProt P10155: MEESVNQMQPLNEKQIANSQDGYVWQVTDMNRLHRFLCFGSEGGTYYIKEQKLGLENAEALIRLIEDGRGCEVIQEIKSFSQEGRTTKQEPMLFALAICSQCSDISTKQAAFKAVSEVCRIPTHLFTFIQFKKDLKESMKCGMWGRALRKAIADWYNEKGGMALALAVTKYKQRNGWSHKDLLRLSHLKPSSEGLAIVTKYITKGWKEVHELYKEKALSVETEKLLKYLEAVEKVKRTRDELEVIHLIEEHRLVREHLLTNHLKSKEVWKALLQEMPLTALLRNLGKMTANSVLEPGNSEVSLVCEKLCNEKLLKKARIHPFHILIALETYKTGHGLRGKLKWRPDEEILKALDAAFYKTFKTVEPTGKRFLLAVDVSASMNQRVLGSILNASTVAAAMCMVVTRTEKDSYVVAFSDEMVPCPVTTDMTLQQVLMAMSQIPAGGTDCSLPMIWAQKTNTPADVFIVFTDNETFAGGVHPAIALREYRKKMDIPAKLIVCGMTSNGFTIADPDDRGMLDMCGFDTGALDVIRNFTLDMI
UniProt P14854, whole entry: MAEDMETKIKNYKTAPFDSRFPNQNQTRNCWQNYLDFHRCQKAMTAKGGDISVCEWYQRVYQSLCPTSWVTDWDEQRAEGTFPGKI
UniProt O95864: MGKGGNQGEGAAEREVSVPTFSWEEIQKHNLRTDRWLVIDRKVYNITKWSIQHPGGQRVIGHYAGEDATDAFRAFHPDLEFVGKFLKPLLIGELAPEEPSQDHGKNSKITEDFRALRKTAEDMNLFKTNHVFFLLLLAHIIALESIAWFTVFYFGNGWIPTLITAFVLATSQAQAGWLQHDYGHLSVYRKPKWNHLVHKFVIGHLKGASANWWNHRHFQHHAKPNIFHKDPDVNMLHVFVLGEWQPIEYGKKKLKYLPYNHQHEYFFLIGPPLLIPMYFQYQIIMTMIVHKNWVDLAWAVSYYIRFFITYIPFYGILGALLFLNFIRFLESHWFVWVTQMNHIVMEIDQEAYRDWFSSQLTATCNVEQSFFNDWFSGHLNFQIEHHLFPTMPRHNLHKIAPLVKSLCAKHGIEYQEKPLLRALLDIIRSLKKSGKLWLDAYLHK
UniProt P11279: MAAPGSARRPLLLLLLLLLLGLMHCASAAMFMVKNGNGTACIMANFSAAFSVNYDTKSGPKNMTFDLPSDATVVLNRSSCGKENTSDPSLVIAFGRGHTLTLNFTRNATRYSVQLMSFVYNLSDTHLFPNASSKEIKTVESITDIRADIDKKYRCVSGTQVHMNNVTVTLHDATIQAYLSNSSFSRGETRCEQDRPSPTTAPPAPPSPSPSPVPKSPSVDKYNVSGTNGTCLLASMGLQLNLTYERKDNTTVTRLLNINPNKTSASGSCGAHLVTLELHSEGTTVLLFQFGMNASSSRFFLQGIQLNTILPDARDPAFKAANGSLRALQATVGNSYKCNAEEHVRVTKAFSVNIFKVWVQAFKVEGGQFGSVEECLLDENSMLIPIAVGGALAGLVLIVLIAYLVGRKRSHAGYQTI
UniProt P07738: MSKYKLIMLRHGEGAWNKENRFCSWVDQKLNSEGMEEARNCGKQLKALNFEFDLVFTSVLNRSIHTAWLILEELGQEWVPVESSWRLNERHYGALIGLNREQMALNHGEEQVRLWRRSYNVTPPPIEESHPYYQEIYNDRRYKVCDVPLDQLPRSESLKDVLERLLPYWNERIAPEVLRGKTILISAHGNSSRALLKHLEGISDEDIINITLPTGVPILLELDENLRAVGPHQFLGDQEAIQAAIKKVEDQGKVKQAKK
UniProt P08579, whole entry: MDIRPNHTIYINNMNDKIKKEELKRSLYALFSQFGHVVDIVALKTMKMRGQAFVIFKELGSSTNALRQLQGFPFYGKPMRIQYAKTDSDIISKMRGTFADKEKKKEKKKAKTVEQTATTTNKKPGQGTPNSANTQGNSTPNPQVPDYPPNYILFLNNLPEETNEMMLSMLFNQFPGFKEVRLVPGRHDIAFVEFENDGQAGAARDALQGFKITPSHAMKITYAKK
UniProt P11172: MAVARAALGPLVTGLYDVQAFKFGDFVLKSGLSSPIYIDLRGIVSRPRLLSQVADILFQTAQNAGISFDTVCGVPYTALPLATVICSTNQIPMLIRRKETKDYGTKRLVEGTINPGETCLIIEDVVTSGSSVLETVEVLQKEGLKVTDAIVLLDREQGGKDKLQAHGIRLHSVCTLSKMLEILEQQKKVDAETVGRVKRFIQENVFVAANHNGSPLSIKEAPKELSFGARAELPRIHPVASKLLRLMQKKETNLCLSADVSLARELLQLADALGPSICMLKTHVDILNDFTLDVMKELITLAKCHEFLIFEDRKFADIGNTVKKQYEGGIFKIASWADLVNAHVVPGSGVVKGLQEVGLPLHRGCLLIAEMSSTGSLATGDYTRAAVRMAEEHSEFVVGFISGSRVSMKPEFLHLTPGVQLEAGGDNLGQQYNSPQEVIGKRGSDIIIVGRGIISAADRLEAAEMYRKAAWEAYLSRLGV
UniProt P05771, whole entry, looked up: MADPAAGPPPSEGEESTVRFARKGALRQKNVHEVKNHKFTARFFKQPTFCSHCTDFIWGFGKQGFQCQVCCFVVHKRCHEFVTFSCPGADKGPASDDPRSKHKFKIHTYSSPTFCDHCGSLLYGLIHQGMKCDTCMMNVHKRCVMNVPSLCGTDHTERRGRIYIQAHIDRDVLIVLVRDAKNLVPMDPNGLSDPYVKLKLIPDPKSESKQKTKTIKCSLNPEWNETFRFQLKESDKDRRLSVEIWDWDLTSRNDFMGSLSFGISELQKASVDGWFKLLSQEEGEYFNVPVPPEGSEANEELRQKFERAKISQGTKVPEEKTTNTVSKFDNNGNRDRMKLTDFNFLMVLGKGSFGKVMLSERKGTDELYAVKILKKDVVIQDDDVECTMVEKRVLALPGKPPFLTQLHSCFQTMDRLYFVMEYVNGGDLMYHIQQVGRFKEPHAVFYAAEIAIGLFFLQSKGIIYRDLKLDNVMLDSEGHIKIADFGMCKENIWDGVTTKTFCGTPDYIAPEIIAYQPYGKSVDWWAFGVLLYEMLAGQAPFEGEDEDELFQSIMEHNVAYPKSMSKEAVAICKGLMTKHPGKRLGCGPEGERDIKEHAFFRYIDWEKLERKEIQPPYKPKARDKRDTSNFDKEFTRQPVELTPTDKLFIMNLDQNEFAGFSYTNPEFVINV
UniProt P06753, whole entry: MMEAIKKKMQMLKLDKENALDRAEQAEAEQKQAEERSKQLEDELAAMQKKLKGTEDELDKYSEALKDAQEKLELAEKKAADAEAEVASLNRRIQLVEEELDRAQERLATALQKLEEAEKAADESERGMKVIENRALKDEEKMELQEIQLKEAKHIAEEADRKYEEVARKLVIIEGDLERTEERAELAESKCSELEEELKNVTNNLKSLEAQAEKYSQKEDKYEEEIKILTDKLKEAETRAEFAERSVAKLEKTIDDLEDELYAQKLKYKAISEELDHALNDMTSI
UniProt P06239: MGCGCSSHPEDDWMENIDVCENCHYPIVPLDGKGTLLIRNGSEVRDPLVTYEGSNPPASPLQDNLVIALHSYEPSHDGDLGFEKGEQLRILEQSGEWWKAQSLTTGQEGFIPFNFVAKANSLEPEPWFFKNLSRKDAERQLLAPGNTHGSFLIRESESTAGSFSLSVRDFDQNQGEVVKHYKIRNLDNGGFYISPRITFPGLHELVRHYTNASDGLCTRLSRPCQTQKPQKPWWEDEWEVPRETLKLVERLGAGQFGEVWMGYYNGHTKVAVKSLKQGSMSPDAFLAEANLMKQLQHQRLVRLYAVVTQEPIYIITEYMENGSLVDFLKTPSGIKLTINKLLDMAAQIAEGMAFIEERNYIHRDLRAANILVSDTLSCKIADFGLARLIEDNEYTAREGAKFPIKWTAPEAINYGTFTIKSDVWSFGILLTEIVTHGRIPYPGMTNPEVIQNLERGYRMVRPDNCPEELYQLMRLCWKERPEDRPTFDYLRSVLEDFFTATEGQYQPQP
UniProt P35520: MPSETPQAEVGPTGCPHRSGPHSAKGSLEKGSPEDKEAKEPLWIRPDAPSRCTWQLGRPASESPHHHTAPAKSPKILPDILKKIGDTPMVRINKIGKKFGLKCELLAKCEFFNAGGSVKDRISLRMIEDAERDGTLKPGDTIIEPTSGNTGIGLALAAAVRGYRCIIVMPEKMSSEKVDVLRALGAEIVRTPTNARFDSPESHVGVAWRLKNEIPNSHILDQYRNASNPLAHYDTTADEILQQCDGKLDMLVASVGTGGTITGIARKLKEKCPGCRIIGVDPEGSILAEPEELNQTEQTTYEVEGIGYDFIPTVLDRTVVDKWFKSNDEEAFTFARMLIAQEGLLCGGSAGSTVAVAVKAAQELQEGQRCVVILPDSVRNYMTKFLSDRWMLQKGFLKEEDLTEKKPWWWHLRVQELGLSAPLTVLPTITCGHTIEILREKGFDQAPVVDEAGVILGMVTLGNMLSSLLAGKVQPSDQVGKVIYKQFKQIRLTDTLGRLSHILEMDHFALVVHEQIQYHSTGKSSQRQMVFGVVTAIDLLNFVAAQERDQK
UniProt P0CG13, whole entry: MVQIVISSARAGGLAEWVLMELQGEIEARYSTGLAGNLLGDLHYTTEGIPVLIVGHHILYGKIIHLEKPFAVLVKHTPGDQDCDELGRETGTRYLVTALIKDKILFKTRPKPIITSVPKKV
UniProt P07339: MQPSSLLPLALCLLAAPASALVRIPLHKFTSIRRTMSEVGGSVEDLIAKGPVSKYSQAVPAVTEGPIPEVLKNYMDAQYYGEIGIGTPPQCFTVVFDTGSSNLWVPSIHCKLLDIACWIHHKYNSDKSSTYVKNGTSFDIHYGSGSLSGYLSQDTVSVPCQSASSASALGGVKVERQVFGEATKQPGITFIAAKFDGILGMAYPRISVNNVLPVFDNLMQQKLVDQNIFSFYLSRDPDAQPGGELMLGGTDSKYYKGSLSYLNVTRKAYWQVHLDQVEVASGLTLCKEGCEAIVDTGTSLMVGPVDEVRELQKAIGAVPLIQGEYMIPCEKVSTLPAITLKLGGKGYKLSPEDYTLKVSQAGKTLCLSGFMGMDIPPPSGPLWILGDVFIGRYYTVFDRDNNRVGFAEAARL
UniProt P02792: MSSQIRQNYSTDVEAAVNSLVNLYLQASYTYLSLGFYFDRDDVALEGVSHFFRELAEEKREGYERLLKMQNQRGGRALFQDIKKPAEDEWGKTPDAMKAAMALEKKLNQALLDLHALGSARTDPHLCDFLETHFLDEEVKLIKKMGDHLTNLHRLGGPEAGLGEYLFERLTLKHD
UniProt P07305, whole entry: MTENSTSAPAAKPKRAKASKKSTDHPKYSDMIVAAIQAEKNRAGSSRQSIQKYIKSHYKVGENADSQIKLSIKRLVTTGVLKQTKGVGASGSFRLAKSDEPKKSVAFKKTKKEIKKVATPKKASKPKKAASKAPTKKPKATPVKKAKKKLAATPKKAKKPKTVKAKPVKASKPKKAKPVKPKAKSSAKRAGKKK
UniProt P15260: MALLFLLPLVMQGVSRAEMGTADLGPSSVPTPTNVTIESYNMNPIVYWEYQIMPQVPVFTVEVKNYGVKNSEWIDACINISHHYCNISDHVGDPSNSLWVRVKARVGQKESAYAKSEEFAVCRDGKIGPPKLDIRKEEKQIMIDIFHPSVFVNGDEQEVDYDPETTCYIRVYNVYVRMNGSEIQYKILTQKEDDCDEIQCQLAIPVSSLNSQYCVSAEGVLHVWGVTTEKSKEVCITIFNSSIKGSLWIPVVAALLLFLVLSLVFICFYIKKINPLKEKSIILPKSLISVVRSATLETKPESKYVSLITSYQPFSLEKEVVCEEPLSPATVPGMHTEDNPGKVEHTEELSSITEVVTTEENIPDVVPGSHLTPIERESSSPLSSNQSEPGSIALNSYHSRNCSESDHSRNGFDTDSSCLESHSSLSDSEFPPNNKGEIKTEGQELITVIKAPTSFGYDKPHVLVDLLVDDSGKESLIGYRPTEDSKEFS

Compound: Nc1ncnc2c1ncn2[C@@H]1O[C@H](COP(=O)(O)OP(=O)(O)OP(=O)(O)O)[C@@H](O)[C@H]1O [adenosine triphosphate]
Test: NP40-soluble protein abundance relative to vehicle (solubility fold change) (ratio); higher = more soluble protein in presence of ATP
Procedure, shortened: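 Jurkat crude lysate prepared with a Dounce homogeniser was treated at eight concentrations spanning 0.1 to 10 mM, 10 min at room temperature then 3 min at 37 °C. Solubilisation with 0.8% NP40 and benzonase and ultracentrifugation preceded TMT labelling of the supernatant for LC-MS/MS. Fold change against the detergent-processed vehicle was determined per replicate from vsn-normalised intensities, across three independent experiments.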

Target	NP40-soluble protein abundance (concentration: 1mM)	NP40-soluble protein abundance (concentration: 2mM)	NP40-soluble protein abundance (concentration: 4mM)	NP40-soluble protein abundance (concentration: 6mM)	NP40-soluble protein abundance (concentration: 8mM)	NP40-soluble protein abundance (concentration: 10mM)
UniProt P04921 and related entries	0.824 ± 0.016	0.76 ± 0.06	0.8462 ± 0.0068	0.853 ± 0.17	0.752 ± 0.034	0.707 ± 0.11
HIST1H1C (UniProt P16403)	1.13 ± 0.13	1.04 ± 0.032	1.14 ± 0.073	1.2 ± 0.032	1.34 ± 0.11	1.39 ± 0.042
COX4I1 (UniProt P13073)	0.972 ± 0.04	0.955 ± 0.021	0.93 ± 0.011	0.95 ± 0.017	0.935 ± 0.027	0.891 ± 0.06
BAG3 (UniProt O95817)	0.95 ± 0.18	0.922 ± 0.18	0.89 ± 0.17	0.905 ± 0.17	0.873 ± 0.12	0.806 ± 0.2
UniProt P15812 and related entries	0.901 ± 0.061	0.983 ± 0.12	0.931 ± 0.14	0.875 ± 0.066	0.885 ± 0.13	0.933 ± 0.11
UniProt P04053 and related entries	1.08 ± 0.12	1.05 ± 0.073	1.07 ± 0.038	0.96 ± 0.13	1.09 ± 0.022	1.1 ± 0.061
UniProt P05165 and related entries	1.05 ± 0.034	1.01 ± 0.06	1.01 ± 0.026	0.954 ± 0.066	1.01 ± 0.09	1.01 ± 0.062
UniProt P13929 and related entries	0.999 ± 0.053	0.98 ± 0.062	0.948 ± 0.053	0.985 ± 0.072	0.979 ± 0.048	0.98 ± 0.045
UniProt P06729	0.888 ± 0.049	0.934 ± 0.015	0.894 ± 0.012	0.973 ± 0.0075	0.877 ± 0.026	0.912 ± 0.036
UniProt P10155	1.02 ± 0.083	0.984 ± 0.076	0.964 ± 0.057	0.941 ± 0.099	0.996 ± 0.031	0.959 ± 0.057
COX6B1 (UniProt P14854)	0.852 ± 0.078	0.85 ± 0.13	0.906 ± 0.073	0.839 ± 0.14	0.857 ± 0.071	0.827 ± 0.12
FADS2 (UniProt O95864)	1.04 ± 0.069	0.99 ± 0.049	0.973 ± 0.04	0.958 ± 0.066	1.03 ± 0.042	1.02 ± 0.05
HARS (UniProt P12081)	0.978 ± 0.033	0.976 ± 0.041	0.952 ± 0.03	0.958 ± 0.058	0.954 ± 0.028	0.944 ± 0.044
DBI (UniProt P07108)	0.931 ± 0.14	0.929 ± 0.12	0.965 ± 0.11	1.05 ± 0.12	0.886 ± 0.049	0.867 ± 0.064
PLS3 (UniProt P13797)	0.937 ± 0.048	0.914 ± 0.035	0.986 ± 0.087	0.879 ± 0.061	0.918 ± 0.13	0.929 ± 0.029
UniProt P16383	0.989 ± 0.05	1.03 ± 0.026	1.05 ± 0.058	1.07 ± 0.065	0.985 ± 0.044	1.06 ± 0.028
UniProt P06241 and related entries	1.17 ± 0.082	1.14 ± 0.011	1.16 ± 0.039	1.08 ± 0.022	1.09 ± 0.025	1.11 ± 0.013
LAMP1 (UniProt P11279)	0.941 ± 0.034	0.917 ± 0.023	0.954 ± 0.018	0.967 ± 0.045	0.913 ± 0.064	0.907 ± 0.021
RNH1 (UniProt P13489)	1.01 ± 0.093	0.965 ± 0.07	0.957 ± 0.071	0.946 ± 0.11	0.982 ± 0.075	0.938 ± 0.071
BPGM (UniProt P07738)	1 ± 0.046	0.976 ± 0.052	0.998 ± 0.07	0.967 ± 0.031	0.943 ± 0.031	0.952 ± 0.073
SRF (UniProt P11831)	0.97 ± 0.057	1.01 ± 0.068	0.966 ± 0.056	1 ± 0.055	0.962 ± 0.073	0.951 ± 0.025
UniProt P00519-2|P00519	1.07 ± 0.042	1.08 ± 0.091	1.09 ± 0.076	1.09 ± 0.068	1.02 ± 0.059	1.07 ± 0.078
ENO1 (UniProt P06733)	0.893 ± 0.074	1.05 ± 0.089	0.847 ± 0.056	1.04 ± 0.12	0.992 ± 0.11	0.837 ± 0.027
O96007 and related entries (UniProt O96033+O96007)	0.941 ± 0.035	0.977 ± 0.037	0.933 ± 0.011	0.949 ± 0.023	0.914 ± 0.036	0.9135 ± 0.0052
SNRPB2 (UniProt P08579)	1.02 ± 0.061	1 ± 0.015	0.988 ± 0.037	1.09 ± 0.018	1.04 ± 0.021	1.04 ± 0.022
UMPS (UniProt P11172)	1.03 ± 0.08	0.999 ± 0.081	0.971 ± 0.069	0.958 ± 0.11	1 ± 0.068	0.972 ± 0.065

Target	NP40-soluble protein abundance (concentration: 1mM)	NP40-soluble protein abundance (concentration: 2mM)	NP40-soluble protein abundance (concentration: 4mM)	NP40-soluble protein abundance (concentration: 6mM)	NP40-soluble protein abundance (concentration: 8mM)	NP40-soluble protein abundance (concentration: 10mM)
RALA (UniProt P11233)	1.01 ± 0.04	0.981 ± 0.041	0.962 ± 0.054	1.02 ± 0.041	0.956 ± 0.022	0.956 ± 0.053
ACTL6A (UniProt O96019)	1.07 ± 0.044	1.05 ± 0.041	1.04 ± 0.047	1.06 ± 0.047	1.07 ± 0.034	1.07 ± 0.042
ZBED1 (UniProt O96006)	0.99 ± 0.061	0.992 ± 0.042	0.957 ± 0.027	0.971 ± 0.024	0.9691 ± 0.0026	0.987 ± 0.038
UniProt P05771-2|P05771	0.963 ± 0.038	0.966 ± 0.025	0.93 ± 0.029	0.982 ± 0.072	0.929 ± 0.049	0.957 ± 0.027
UniProt P14324-2	0.934 ± 0.056	0.957 ± 0.093	0.902 ± 0.072	0.909 ± 0.12	0.904 ± 0.059	0.942 ± 0.096
UniProt P06753-2|P06753-3|P06753-5|P06753-6|J3KN67	1.06 ± 0.1	1.03 ± 0.13	1.13 ± 0.068	1.19 ± 0.058	1.33 ± 0.28	0.924 ± 0.41
SLC2A3 (UniProt P11169)	0.994 ± 0.026	0.9597 ± 0.0024	0.972 ± 0.04	0.995 ± 0.029	1 ± 0.051	0.977 ± 0.02
UniProt P06748 and related entries	0.998 ± 0.066	1.02 ± 0.039	0.999 ± 0.069	1.15 ± 0.06	1.084 ± 0.0087	1.12 ± 0.055
RPS2 (UniProt P15880)	0.877 ± 0.047	0.832 ± 0.081	0.78 ± 0.098	0.752 ± 0.079	0.718 ± 0.1	0.772 ± 0.097
UniProt P04075 and related entries	0.994 ± 0.061	0.982 ± 0.018	0.946 ± 0.036	1.02 ± 0.043	0.942 ± 0.043	0.943 ± 0.038
SOD1 (UniProt P00441)	0.83 ± 0.15	0.939 ± 0.086	0.796 ± 0.14	1.07 ± 0.12	0.88 ± 0.045	0.906 ± 0.12
UniProt P06239 and related entries	1.06 ± 0.022	1.01 ± 0.035	1.03 ± 0.021	0.9593 ± 0.008	1.04 ± 0.017	1.03 ± 0.021
HPRT1 (UniProt P00492)	0.949 ± 0.068	0.962 ± 0.029	0.934 ± 0.028	0.859 ± 0.12	0.922 ± 0.026	0.932 ± 0.018
UniProt P12931 and related entries	1.01 ± 0.14	1.01 ± 0.057	1.01 ± 0.059	0.938 ± 0.11	0.963 ± 0.029	1.02 ± 0.034
P0DN79 and related entries (UniProt P35520+P0DN79)	0.948 ± 0.049	0.919 ± 0.03	0.943 ± 0.05	0.904 ± 0.086	0.932 ± 0.055	0.949 ± 0.043
RRAS (UniProt P10301)	1.62 ± 0.67	1.03 ± 0.11	1.12 ± 0.13	1.05 ± 0.16	0.992 ± 0.12	1.04 ± 0.12
PRKAR1A (UniProt P10644)	0.995 ± 0.04	0.975 ± 0.048	0.992 ± 0.013	0.96 ± 0.056	0.991 ± 0.039	0.961 ± 0.079
P0CG12 and related entries (UniProt P0CG13)	0.958 ± 0.044	0.964 ± 0.034	0.966 ± 0.053	0.927 ± 0.031	0.927 ± 0.028	0.938 ± 0.059
CTSD (UniProt P07339)	0.97 ± 0.012	0.9718 ± 0.0087	0.962 ± 0.013	0.94 ± 0.074	0.945 ± 0.02	0.952 ± 0.027
UniProt P02792 and related entries	0.934 ± 0.13	0.888 ± 0.13	0.846 ± 0.11	0.922 ± 0.24	0.935 ± 0.15	0.804 ± 0.17
H1F0 (UniProt P07305)	0.934 ± 0.03	0.883 ± 0.031	0.88 ± 0.023	0.857 ± 0.041	0.692 ± 0.068	0.968 ± 0.044
UniProt P04234	0.884 ± 0.08	0.97 ± 0.033	0.981 ± 0.048	0.934 ± 0.021	0.963 ± 0.049	0.933 ± 0.051
AKR1B1 (UniProt P15121)	1.01 ± 0.12	0.971 ± 0.11	0.918 ± 0.094	0.907 ± 0.17	0.959 ± 0.086	0.931 ± 0.093
IFNGR1 (UniProt P15260)	0.97 ± 0.038	0.9578 ± 0.0042	0.938 ± 0.079	1.01 ± 0.029	0.95 ± 0.047	0.905 ± 0.043
QDPR (UniProt P09417)	0.961 ± 0.054	1 ± 0.042	0.9907 ± 0.0088	0.945 ± 0.058	0.965 ± 0.028	0.994 ± 0.035

Given as labelled records: part of the list above.
RNH1 (UniProt P13489)
  NP40-soluble protein abundance (concentration: 1mM): 1.01 ± 0.093
  NP40-soluble protein abundance (concentration: 2mM): 0.965 ± 0.07
  NP40-soluble protein abundance (concentration: 4mM): 0.957 ± 0.071
  NP40-soluble protein abundance (concentration: 6mM): 0.946 ± 0.11
  NP40-soluble protein abundance (concentration: 8mM): 0.982 ± 0.075
  NP40-soluble protein abundance (concentration: 10mM): 0.938 ± 0.071
BPGM (UniProt P07738)
  NP40-soluble protein abundance (concentration: 1mM): 1 ± 0.046
  NP40-soluble protein abundance (concentration: 2mM): 0.976 ± 0.052
  NP40-soluble protein abundance (concentration: 4mM): 0.998 ± 0.07
  NP40-soluble protein abundance (concentration: 6mM): 0.967 ± 0.031
  NP40-soluble protein abundance (concentration: 8mM): 0.943 ± 0.031
  NP40-soluble protein abundance (concentration: 10mM): 0.952 ± 0.073
SRF (UniProt P11831)
  NP40-soluble protein abundance (concentration: 1mM): 0.97 ± 0.057
  NP40-soluble protein abundance (concentration: 2mM): 1.01 ± 0.068
  NP40-soluble protein abundance (concentration: 4mM): 0.966 ± 0.056
  NP40-soluble protein abundance (concentration: 6mM): 1 ± 0.055
  NP40-soluble protein abundance (concentration: 8mM): 0.962 ± 0.073
  NP40-soluble protein abundance (concentration: 10mM): 0.951 ± 0.025
